In US20250221413A1, “Use and Preparation Method of Sulfoxamyl, and Oxidation System” (priority 2023, published 2025):
“And” between values parts separate entries of the source, which are not always exact repeats. Identical values can stand only once. The source gives many values for each of these; only a part stands here.

Tested on: Meloidogyne incognita
Test: Indoor toxicity test against Meloidogyne incognita second-instar larvae (J2)
Procedure: Materials: the tested nematodes were collected from three different areas, namely cucumber crops in Dawenkou Town, Tai'an City, Shandong Province, and were all identified as southern root-knot nematodes (Meloidogyne incognita). The diseased roots were washed, cut into small sections of 0.5 cm to 1 cm, rinsed in 1% NaClO solution for about 30 s to 60 s, and rinsed with 200-mesh and 500-mesh sieves to collect nematode eggs for later use. The collected eggs were incubated at 25° C. using the Bayman funnel method and the second-instar larvae were collected 1 time per 24 h to ensure that the second-instar larvae selected each time were fresh and of consistent vitality.
The agent was 98% sulfoxamyl technical, and the comparison agents were 96% oxamyl technical and 87% fosthiazate technical.
The preparation for the agent was in accordance with the provisions for preparation of the liquid medicine in the Agricultural Industry Standard of the People's Republic of China NYT 1833.1-2009 “Guideline for laboratory bioassay of pesticides”, as shown in Table 6.
Methods: according to the experimental plan, the test agent was diluted to different mass concentrations, and 0.5 mL of the agent solution and 0.5 mL of the nematode solution (containing about 100 nematodes) were added into a 24-well cell culture plate. The treatment with each concentration of the agent was repeated 4 times, and auxiliary agent control and blank control were also conducted. […]

CNC(=O)O/N=C(\SC)C(=O)N(C)C [Oxamyl, N,N-dimethyl-2-[[[(methylamino)carbonyl]oxy]imino]-2-(methylthio)acetamide]
Corrected mortality (200 mg/L, 48 h): 93.50% | Mortality (200 mg/L, 48 h): 93.49% | Mortality (200 mg/L, 72 h): 96.14% | Corrected mortality (400 mg/L, 24 h): 90.88% and 96.65% and 94.85% and 94.61% | Mortality (400 mg/L, 24 h): 90.99% and 96.69% and 94.92% and 94.70% | Corrected mortality (400 mg/L, 48 h): 97.26% and 98.32% and 99.14% and 98.19% | Mortality (400 mg/L, 48 h): 98.35% and 99.15% and 98.23% | Corrected mortality (400 mg/L, 72 h): 99.08% and 99.16% and 99.56% | Mortality (400 mg/L, 72 h): 99.10% and 99.17% and 99.56%

CNC(=O)O/N=C(/C(=O)N(C)C)S(C)(=O)=O [Sulfoxamyl, N,N-dimethyl-2-[[[(methylamino)carbonyl]oxy]imino]-2-(methylsulfonyl)acetamide]
Corrected mortality (50 mg/L, 24 h): 82.57% and 90.07% and 85.21% | Mortality (50 mg/L, 24 h): 82.79% and 90.20% and 85.27% | Corrected mortality (50 mg/L, 48 h): 88.62% and 90.85% and 96.02% and 91.92% | Mortality (50 mg/L, 48 h): 88.79% and 90.98% and 96.08% and 91.96% | Corrected mortality (50 mg/L, 72 h): 98.33% and 99.00% and 96.99% | Mortality (50 mg/L, 72 h): 98.36% and 99.02% and 97.10% | Corrected mortality (100 mg/L, 24 h): 99.16% and 99.06% and 98.63% | Mortality (100 mg/L, 24 h): 100.00% and 99.17% and 98.64% | Corrected mortality (100 mg/L, 48 h): 100.00% and 99.77% | Mortality (100 mg/L, 48 h): 99.77%
